# Out of some 320,000 compounds screened, about 740 (0.23%) were called active. Inconclusive results, whose numbers are uncertain, are shown with a selection of clear calls. Calls follow the shape of the dose curve; as a rule, active = well fitted activation curve with a large enough effect; inconclusive = small, poorly fitted or top-dose-only effect; inactive = no such curve, though single readings can be large or run the other way. Potencies of inconclusive entries are doubtful fits and often do not repeat.
# Assay: qHTS Assay for Small Molecule Inhibitors of Mitochondrial Division or Activators of Mitochondrial Fusion; also: nearly all actives have a fitted effect of over 45% in size;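 as to growth rescue (activation): temperature-sensitive fusion mutants such as fzo1-1 at 37 °C on non-fermentable ethanol glycerol medium; % of control where 0% means no effect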
# Details: S. cerevisiae fusion-defective mutant growth rescue, CellTiterGlo 48 h; growth rescue (activation): at 46.1 µM (top of the series) unless noted
# Summary of the method: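 Yeast fusion mutant, YPEG (non-fermentable carbon), compound, 48 h at 37C non-permissive; CellTiterGlo added, 10 min RT, luminescence read. Rescued growth = division inhibition.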
# Potency is read from the fitted curve at half-maximal effect.
Structure (SMILES),growth rescue (activation),Potency
CC(=O)Nc1ccc(NC(=O)Cn2cnc3c(cnn3C(C)(C)C)c2=O)cc1,inactive: -3%,–
Cc1ccc2[nH]cc(C(=O)CCl)c2c1,–,"inconclusive: 35.5 µM [activator, single point]"
COc1ccc(C2C=C(C34CC5CC(CC(C5)C3)C4)NC(=S)N2)cc1 (centres undefined),–,active: 11.2 µM
CC1Cc2ccccc2N1Cc1cc(=O)n2ccsc2n1 (centres undefined),inactive: -0.487%,–
COc1cc(OC)cc(C(=O)NNC(=O)Cc2ccc(OC)c(S(=O)(=O)N3CCOCC3)c2)c1,–,"inconclusive: 35.5 µM [activator, single point]"
Cc1cc(SCC(=O)O)nc2ccccc12,–,inactive
Cc1nonc1C1CCCN1Cc1cn[nH]c1-c1ccc(-c2ccccc2)cc1 (centres undefined),–,"inconclusive: 11.2 µM [activator, partial curve]"
O=C(N/N=C1/CCc2ccccc21)C1CC1,inactive: 4.17%,–
COc1ccc(-n2c(SC(C)C(=O)Nc3ncc(Cl)cc3Cl)nc3ccccc32)cc1 (centres undefined),–,"inconclusive: 12.6 µM [activator, partial curve]"
CCc1nnc(NS(=O)(=O)c2ccc(NC(=O)COc3ccc4ccccc4c3)cc2)s1,inactive: -2.77%,–
C=CCSc1nc(N)c(C#N)c(-c2ccccc2)c1C#N,–,"inconclusive: 6.31 µM [activator, partial curve]"
COc1cccc(CN2CC(C(=O)NCc3cccc(Cl)c3)CCC2=O)c1 (centres undefined),inactive: 1.58%,–
CCCCCCn1c(=O)[nH]c2nc3cc(N)c(C)cc3nc2c1=O,–,"inconclusive: 35.5 µM [activator, single point]"
CC(=O)N1N=C(c2cccs2)CC1c1cccs1 (centres undefined),inactive: 3.08%,–
COc1cc2c(cc1NC(=O)C(C)NCc1ccccc1)oc1ccccc12 (centres undefined),–,"inconclusive: 0.501 µM [activator, partial curve, poor fit]"
CN(C)c1ccc(/C=C/C(=O)c2cccc(Br)c2)cc1,inactive: 1.74%,–
COc1ccc(CN(C)C(=O)C(Cc2ccccc2)NC(=O)c2ccccc2)c(OC)c1 (centres undefined),–,"inconclusive: 20 µM [activator, partial curve]"
O=S(=O)(c1ccccc1F)N1CCN(c2nc(-c3cccnc3)nc3ccccc23)CC1,–,"inconclusive: 11.2 µM [activator, partial curve]"
Cc1ccc(SC[C@H](Cc2ccccc2)N2CCN(CC(C)C)CCC2=O)cc1,inactive: -5.33%,–
CNC(=O)c1ccsc1NC(=O)c1ccc(S(=O)(=O)N2CCc3ccccc32)cc1,–,"inconclusive: 15.8 µM [activator, partial curve]"
CCOc1ccccc1NC(=O)c1ccc2ccccc2c1,inactive: -1.39%,–
Cc1ccc(C)c(COC(=O)c2cccc(S(=O)(=O)N3CCCC3)c2)c1,–,"inconclusive: 11.2 µM [activator, partial curve]"
COc1ccc(Cn2nnnc2C(CC(C)C)N2CCN(c3ccccc3)CC2)cc1 (centres undefined),–,"inconclusive: 2.51 µM [activator, full curve, poor fit]"
Fc1ccc(-c2nc3c(-c4ccc(Cl)cc4)cnn3cc2CCN2CCOCC2)cc1,inactive: 2.07%,–
Cc1ccc(-n2nc(C)c3c(C)cc(=O)[nH]c32)cc1,inactive: 1.76%,–

Structure (SMILES),growth rescue (activation),Potency
O=C(Nc1ccc(O)cc1)c1ccc(NC(=O)c2cccs2)cc1,inactive: 1.76%,–
COC(=O)C1CN(S(=O)(=O)c2cc(OC)ccc2OC)CCS1 (centres undefined),inactive: -9.1%,–
CCCC[C@]12Cc3cc(C#N)ccc3C(O1)c1c(cc(-c3ccccc3)oc1=O)O2,inactive: 1.61% [at 9.22 µM],–
CCOCCn1c(COc2ccc(C)cc2)nc2ccccc21,–,"inconclusive: 35.5 µM [activator, single point]"
CCCCN(CC)C(=O)c1cc2cc3ccc(Cl)cc3nc2o1,–,"inconclusive: 12.6 µM [activator, partial curve]"
CCN(C(=O)COC(=O)c1ccccc1NCCO)c1cccc2ccccc12,–,"inconclusive: 35.5 µM [activator, single point]"
O=C(CSC1=NCCS1)N1CCOCC1,inactive: -2.82%,–
CC(=NCCc1c(C)[nH]c2ccc(C)cc12)C1=C(O)CC(c2ccccc2)CC1=O (centres undefined),–,"inconclusive: 20 µM [activator, partial curve]"
Cc1ccc2[nH]c(C)c(CCNC(=O)c3cc4cc([N+](=O)[O-])ccc4oc3=O)c2c1,–,"inconclusive: 14.1 µM [activator, single point]"
Cc1cc(C)n(-c2n[nH]c(=O)c3ccccc23)n1,inactive: 4.99%,–
CCCCn1c(C)cc2c(c1=O)[C@H]1O[C@](CCCCN3C(=O)c4ccccc4C3=O)(Cc3ccccc31)O2,inactive: -0.674% [at 9.22 µM],–
CC(=O)c1ccc(NC(=O)c2ccc(C)c(Br)c2)cc1,–,"inconclusive: 3.55 µM [activator, partial curve]"
CSc1cccc(NC(=O)NCc2cccc(CNC(=O)Nc3cccc(SC)c3)c2)c1,inactive: 16.2%,–
O=C(/C=C/c1cccs1)N1CCC2(CC1)Oc1ccc(Cl)cc1C(=O)C21CC(c2cccnc2)=NO1 (centres undefined),–,"inconclusive: 12.6 µM [activator, partial curve]"
O=c1c2ccccc2oc2nc(C3CCCCC3)n(Cc3ccco3)c(=O)c12,–,"inconclusive: 2.51 µM [activator, partial curve]"
CN1CCc2ccccc2Cc2[nH]c3ccccc3c2CC1,–,"inconclusive: 29.1 µM [activator, single point]"
CCCNC(=S)N(Cc1ccccc1)Cc1nc2ccccc2c(=O)[nH]1,inactive: -0.865%,–
Cc1c(O)ccc(C(=O)CN2CCN(c3ccc(F)cc3)CC2)c1O,–,"inconclusive: 3.55 µM [activator, full curve, poor fit]"
COC(=O)c1ccc(C(=O)OC)c(NC(=S)N2CCC(C)CC2)c1,–,"inconclusive: 12.6 µM [activator, partial curve]"
Cc1nc(NC(=O)c2ccccc2)sc1C1(C)CC(c2c(Cl)cccc2Cl)=NO1 (centres undefined),–,"inconclusive: 11.2 µM [activator, partial curve]"
Cc1ccc(NC(=O)CSC(N)=O)cc1Cl,–,"inconclusive: 6.31 µM [activator, partial curve]"
C=CCNC(=O)/C(C#N)=C/c1ccccc1Cl,inactive: 3.01%,–
O=C(CCC(=O)NCCCc1ccccc1)NCCCc1ccccc1,–,"inconclusive: 35.5 µM [activator, single point]"
CC(=O)Nc1nnc(-c2c(-c3ccccc3Cl)noc2C)o1,inactive: 7.6%,–
O=C(CCNc1cc(Cl)cc(Cl)c1)c1ccco1,inactive: -9.75%,–

# A second format for part of the listing above:
Structure (SMILES) | growth rescue (activation) | Potency
CCOCCn1c(COc2ccc(C)cc2)nc2ccccc21 | – | inconclusive: 35.5 µM [activator, single point]
CCCCN(CC)C(=O)c1cc2cc3ccc(Cl)cc3nc2o1 | – | inconclusive: 12.6 µM [activator, partial curve]
CCN(C(=O)COC(=O)c1ccccc1NCCO)c1cccc2ccccc12 | – | inconclusive: 35.5 µM [activator, single point]
O=C(CSC1=NCCS1)N1CCOCC1 | inactive: -2.82% | –

# (listing goes on)

Structure (SMILES),growth rescue (activation),Potency
CCN1C(=O)NC(c2ccccc2)C1=O (centres undefined),inactive: 0.167%,–
Oc1ccc(CCNc2ncnc3ccc(Cl)cc23)cc1,inactive: 3.22%,–
CC(=O)N(Cc1ccc(Br)cc1)c1cccc(C)c1C,–,"inconclusive: 35.5 µM [activator, single point]"
C=CCc1ccc(OCCCCN2CC(C)OC(C)C2)c(OC)c1 (centres undefined),–,"inconclusive: 2.82 µM [activator, partial curve]"
CCCn1nnnc1NC(=O)c1ccc2ccccc2c1,–,"inconclusive: 35.5 µM [activator, single point]"
COc1cc(NS(=O)(=O)c2ccc(Nc3nc(-c4ccccc4)cs3)cc2)nc(OC)n1,–,"inconclusive: 31.6 µM [activator, single point]"
CN1CCC(=C2c3ccccc3CC(=O)c3sccc32)CC1,–,"inconclusive: 29.1 µM [activator, single point]"
COc1ccc(-c2cc(C(F)(F)F)nc(N)n2)cc1,inactive: 2.18%,–
COCC(C)NC(=O)COc1nncc2ccccc12 (centres undefined),–,"inconclusive: 10 µM [activator, partial curve]"
COc1ccccc1N1CCN(CC(O)COc2cccc3ccccc23)CC1 (centres undefined),–,"inconclusive: 18.4 µM [activator, partial curve]"
Cc1c(Cc2ccc3c(c2)OCO3)sc(NC(=O)c2cccc3ccccc23)c1C(N)=O,–,"inconclusive: 7.94 µM [activator, partial curve]"
CCOc1ccc(C(=O)Nc2ccc(N3CCN(C)CC3)cc2)cc1[N+](=O)[O-],inactive: 2.1%,–
O=C(c1ccccc1Cc1ccccc1)N1CCN(S(=O)(=O)c2ccccc2Br)CC1,–,"inconclusive: 35.5 µM [activator, single point]"
O=S(=O)(NCCN1CCCC1)c1ccc(C(F)(F)F)cc1,inactive: 0.829%,–
COc1ccccc1C1=CC(=O)C[C@H](c2ccc(Cl)cc2)C1,–,"inconclusive: 14.1 µM [activator, single point]"
COc1ccc(CCNC(=O)c2ccc(-c3ccc([N+](=O)[O-])cc3Cl)o2)cc1,–,"inconclusive: 17.8 µM [activator, partial curve]"
CC1=NN(c2ccccc2)C(=O)/C1=C\C=C1\N(C)c2ccccc2C1(C)C,–,"inconclusive: 12.6 µM [activator, partial curve]"
COc1cccc(/C=C2\SC(=S)N(NS(=O)(=O)c3ccc(C)cc3)C2=O)c1OC,–,active: 5.01 µM
Cc1ccc(C(=O)c2cc([N+](=O)[O-])ccc2N2CCOCC2)c(C)c1,inactive: -0.81%,–
CC1CCCN(C(=O)Cc2cn(Cc3cccc(Cl)c3)c3ccccc23)C1 (centres undefined),–,"inconclusive: 35.5 µM [activator, single point]"
COc1cccc(CNn2c(-c3cccc(C)c3)nc3ccccc3c2=O)c1,–,"inconclusive: 17.8 µM [activator, single point]"
CCOC(=O)c1ccc2nc(NC(=O)c3ccco3)sc2c1,–,"inconclusive: 11.2 µM [activator, partial curve]"
CC(NC(=O)/C=C/c1cnc2ccccc2n1)C12CC3CC(CC(C3)C1)C2 (centres undefined),–,"inconclusive: 31.6 µM [activator, single point]"
COc1ccc(/C=N/OCC(=O)NC(c2ccccc2)c2ccccc2)c(OC)c1,–,"inconclusive: 14.1 µM [activator, single point]"
